Assay results: patent US5559209A, “Regulator regions of G proteins” (The General Hospital Corporation, priority 1993, dated 1996)
At least one peptide structure holds a part that was inferred or is arguable (an end, a ring closure or a residue). Some compounds share one wording; it may come from a single statement. Where no end group is shown, it is not given here.

Sequences of proteins named here, by UniProt entry; tags and fusion partners are left off. Residues count along the entry.
UniProt P04896, 2-394 limits assumed: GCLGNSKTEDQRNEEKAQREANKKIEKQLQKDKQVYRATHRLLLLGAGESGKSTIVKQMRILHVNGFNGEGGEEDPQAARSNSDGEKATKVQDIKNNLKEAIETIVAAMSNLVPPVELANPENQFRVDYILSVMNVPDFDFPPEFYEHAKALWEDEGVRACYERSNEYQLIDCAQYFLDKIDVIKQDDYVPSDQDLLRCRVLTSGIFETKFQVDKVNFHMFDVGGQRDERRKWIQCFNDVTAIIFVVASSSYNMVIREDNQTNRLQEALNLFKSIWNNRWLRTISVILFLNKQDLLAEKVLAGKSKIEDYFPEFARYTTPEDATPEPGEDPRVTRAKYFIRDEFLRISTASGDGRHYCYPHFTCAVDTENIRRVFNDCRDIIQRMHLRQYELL

Key:
T cell receptor = experiment: OKT3-induced polyphosphoinositide turnover in Jurkat cells; format: cell-based, human; conditions: pretreated with 500 μM peptide, OKT3 1:100 for 5 min
Method: Inhibition of T cell receptor function with ACGq. T cell receptor stimulation by monoclonal antibody OKT^3 in Jurkat cells, a line of human T cells, induces measurable polyphosphoinositide (PI) turnover. 10^7 cells were labelled with 5 μCi/ml [^3 H]myoinositol in inositol-free RPMI1640 for 12 hours. After incubating the cells with 500 μM ACGq, samples containing 5×10^5 cells were then exposed to the monoclonal antibody OKT3 (Ortho) at 1:100 dilution for 5 min. Perchloric acid was added to a final concentration of 10% to lyse the cells and terminate the reaction. Cell lysates were collected into tubes and brought to pH>8 by the addition of KOH. Following centrifugation of the lysates, the supernatants were passed over a DOWX anion exchange column (Muromachi Chemicals, Japan) to separate inositol polyphosphates (IPs) from other inositol metabolites, and the amount of [^3 H] label in the inositol trisphosphate (IP3) fraction assessed.

[1] = tested on: NRK (rat renal fibroblast) cells; experiment: TGFβ-induced fibronectin secretion, immunoblot; format: cell-based; conditions: 100 μM peptide, 50 pM TGFβ, 12 hours
Source text: Inhibition of TGFβ-induced matrix formation. The secretion of matrix proteins (in particular, fibronectin) by kidney, lung and liver cells may lead to sclerosis of those organs. Transforming growth factor-β (TGFβ), which stimulates the secretion of fibronectin, may therefore contribute to such sclerosis. Since the TGFβ receptor is a Go2 -coupled receptor, the ability of ACGo2 to inhibit the TGFβ-induced stimulation of fibronectin secretion by NRK (rat renal fibroblast) cells (Ignotz and Massague, J. Biol. Chem. 261:4337-4345, 1986) was assayed.
NRK cells were cultured in RPMI 1640 supplemented with 5% FCS in a CO2 -incubator at 37° C. The medium was replaced every two days. Cells were regularly subcultured by trypsin-EDTA before reaching confluency. In the experiments described below, the cells were grown in monolayer to confluency in 6-well culture plates (Corning, N.Y.), then incubated for 12 hours with RPMI 1640 plus 0.5% FCS, and for a further 12 hours with RPMI 1640 plus 0.5% FCS in the presence or absence of 50 pM TGFβ (R & D System, Minneapolis, Minn.), to which was added 100 μM ACGi2, ACGs, ACGo2, or ACGq. The medium from each well was collected and frozen at -20° C. until assay. Fibronectin secreted into each sample of medium was assessed by immunoblot as follows:
Each medium sample was mixed with an equal volume of 2×concentrated Laemmli buffer (Laemmli, Nature 227:680-685, 1970), and boiled at 90° C. for 5 min. Proteins were separated by electrophoresis on 7.5% SDS-polyacrylamide gel, and then transferred to a polyvinylidene difluoride sheet (Immobilon-P, Millipore) by electroelution at 0°-4° C. with constant voltage of 75 V for 8 hours. After transfer, the sheet was incubated with PBS containing 5% bovine serum albumin and 2% skim milk (Defco) overnight at room temperature to block nonspecific protein binding. The sheet was then incubated with PBS containing 0.1% bovine serum albumin and an anti-fibronectin antibody (Chemicon International, CA) at a final concentration of 0.5 mg/ml for 3 hours at room temperature. After washing with ice-cold PBS/0.05% Tween 20 three times, the sheet was incubated with 0.04 units/ml of a horseradish peroxidase-conjugated anti-rabbit IgG (Sigma, A-8257) in PBS/0.1% bovine serum albumin for 3 hours at room temperature. The sheet was washed six times with ice-cold PBS/0.05% Tween 20, incubated with ECL (Enhanced ChemiLuminescence) solution (Amersham, RPN 2101) according to instructions for 1 min, and exposed on Kodak XAR5 film for 40-60 seconds.

[2] = tested on: heart muscle fibrosis in myopathic syrian hamsters BIO 53.58; experiment: Cardiac fibrosis in myopathic hamsters; format: in vivo, syrian hamster; conditions: intraperitoneal 5 μl of 10 mM peptide once a week for 6 weeks, 10-week-old hamsters
Gs = target: T1, Gs (Bos taurus, UniProt P04896); experiment: GTPγS binding, βIII-2-induced Gs activation; format: biochemical, bovine; conditions: 1 μM βIII-2, 10 nM Gs; basal 0.30
T1 construct: Trimeric Gs and Gβγ purified from bovine brain to near homogeneity; from tissue; host or cells: bovine brain
Method: Materials and Methods The in vitro assays described below utilize the couplone portion of each of a number of G-coupled receptors, instead of an intact receptor molecule, as a means for activating the corresponding anticouplone or intact G-protein. Except as noted below, Gi2 used in this study was trimeric Gi2 (i.e., Gi2 αβγ) purified from bovine brain to near homogeneity (Katada et al., FEBS Lett. 213:353-358 (1987), stored in buffer A (20 mM hepes/NaOH (pH 7.4), 1 mM EDTA, and 0.7% CHAPS), and diluted≥10 fold for assays. The Gi2 used for the reconstitution experiment was trimeric Gi2 purified from bovine spleen to homogeneity and dissolved in buffer B (Morishita et al., 1989). Gi3 α (Morishita et al., Biochem. Biophys. Res. Commun. 172:249-255 (1990), was purified from bovine spleen and used in combination with 1.5-fold concentrated Gβγ (Katada et al., 1987). This preparation of Gi3 α was 10-20% contaminated by Gi1 α, but not by other G proteins. Trimeric Gs and Gβγ purified from bovine brain to near homogeneity (Katada et al., 1987) were also stored in buffer A.
GTPγS binding Assay--GTPγS binding to G proteins was assayed at 37° C. in 20 mM Hepes/NaOH buffer (pH 7.4) containing 130 μM MgCl2, 110 μM EDTA and 60 nM [^35 S]GTPγS, as described previously (Okamoto et al., 1990). GTPγS binding to polypeptides was negligible. The total amount of G protein was measured as maximal GTPγS binding at room temperature, as described (Okamoto et al., Cell 67:723-730, 1991a). [^35 S]GTPγS was purchased from DuPont-New England Nuclear. […] Thus, the apparent first-order rate constant for GTPγS binding (kapp), which is equal to the slope of the tangent to the GTPγS binding curve at time 0 and represents the actual GTPγS binding rate, was calculated from this equation.
GTPβS binding was measured following incubation of solubilized Gs at 10 nM with 1 μM βIII-2 (RRSSKFCLKEHKALK; SEQ ID NO: 29) in the presence of ACGi2 for 10 min. […]

Sequence | [3H] incorporation into IP3 relative to unstimulated control cells (T cell receptor) [%] | fibronectin secreted by cells exposed to TGFβ in the presence of peptide [1] | heart muscle fibrosis (collagen, sirius red) [2] | fractional GTPγS binding to Gs, 100% binding (Gs)
AAVKDTILQLNLKEY [ACGq, AAVKDTILQLNLKEY] | 112 | significant amount of fibronectin is secreted | undiminished, control levels of fibrosis | –
RRSSKFCLKEHKALK [βIII-2, RRSSKFCLKEHKALK, reference compound] | – | – | – | 0.60 10 min^-1
